Tested on: five organisms
Assay: Antimicrobial activity, sum of log drops of five organisms
Assay type: cell-based
Conditions: HA 1.7M relative to non-HA control and/or lower molecular weight HA compositions; Tris buffered

CCCCCCCCCCCCCCCC[n+]1ccccc1 [CPC, Cetylpyridinium Chloride]
reduction of the sum of the kill level by HA of MW 1.7M: less than 1 log

From patent US20060100173A1, “Ophthalmic solution” (priority 2004, published 2006)
